Assay results published in article doi:10.1101/2021.03.09.434543.

What was measured:
Test in all cases: EMSA
[1] = molecular target: T1, OsFD7 (OsbZIP62)-GST (Oryza sativa (rice)) (UniProt B7F384)
T1 sequence (looked up, limits assumed): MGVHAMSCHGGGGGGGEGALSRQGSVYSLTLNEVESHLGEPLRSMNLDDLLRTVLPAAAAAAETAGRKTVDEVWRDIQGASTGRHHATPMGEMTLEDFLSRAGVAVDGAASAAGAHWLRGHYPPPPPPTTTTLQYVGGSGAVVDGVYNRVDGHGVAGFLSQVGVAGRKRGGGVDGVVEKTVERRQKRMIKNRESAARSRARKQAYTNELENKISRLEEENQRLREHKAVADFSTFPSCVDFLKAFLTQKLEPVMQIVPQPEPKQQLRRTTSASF

[2] = test system: OsFD7 (OsbZIP62)-GST + OsFTL1-GST + OsGF14b-GST; conditions: supershift with all three proteins
[3] = test system: OsFD7 (OsbZIP62)-GST + OsFTL1-GST; conditions: supershift
[4] = molecular target: OsFTL1-GST (Oryza sativa (rice)) (UniProt B7ELI3)
[5] = molecular target: T2, OsGF14b-GST (Oryza sativa (rice)) (UniProt Q7XTE8)
T2 sequence (looked up, limits assumed): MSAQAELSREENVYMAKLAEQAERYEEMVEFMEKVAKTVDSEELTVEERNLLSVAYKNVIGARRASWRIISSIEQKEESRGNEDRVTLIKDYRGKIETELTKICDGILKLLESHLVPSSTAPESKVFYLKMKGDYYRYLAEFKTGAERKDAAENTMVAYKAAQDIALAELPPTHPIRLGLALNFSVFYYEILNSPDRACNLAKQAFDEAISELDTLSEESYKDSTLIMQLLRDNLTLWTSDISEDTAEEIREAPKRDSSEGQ

| Sequence | binding result [1] | binding result [2] | binding result [3] | binding result [4] | binding result [5] |
| --- | --- | --- | --- | --- | --- |
| AATGCAAAGCGAAGGTGACACT (double strand) [Non CB oligo] | no binding |  |  |  |  |
| TATGGTGAAGCGATTGCCTAG (double strand) [Non GB oligo] | no binding |  |  |  |  |
| CTTCACGAGACGTCGATAATCA (double strand) [CB oligo] | binds | binds | binds | no binding | no binding |

For some of these results: No signal at the amounts used counts as a negative. At least one verdict was read from the data and is not stated in words by the source. For some of these results: For at least one entry, the source does not settle the construct or the ends of the probe. For some of these results: Tags and fusion partners may be left off the protein sequences shown.
